Data source: PubChem BioAssay AID602196 (INSERM, 2012)
Purpose: 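Modifiers of cisplatin sensitivity in A549 cells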. Cell system: human A549 lung cancer cells. Reagent: siRNA pair against human genes. Duration: 48 h transfection before cisplatin; time from cisplatin to read-out not stated. Treatment: cisplatin at a dose killing half of control-siRNA cells; exact dose and duration not given. Read-out: 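Cisplatin cell death as a shift from the 50% death seen with control siRNA; siRNAs toxic or growth-blocking alone scored 0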. Reading the numbers: two-siRNA summed score (-2 to +2): higher = both siRNAs protect from cisplatin killing; -2 means both sensitise. Rule for the call: 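Each siRNA scores 0 if harmful alone by LDH or WST-1, otherwise +1 if it reduces and -1 if it increases cisplatin killing; a gene is active when both siRNAs agree (sum +2 or -2)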. Meaning of the calls: active = both siRNAs shift cisplatin killing the same way; inactive = no consistent shift, or siRNA harmful alone.
Here is one part, drawn at random, of about 23,000 deposited reagents. Over the whole deposit, 455 (2%) are marked active. 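Active includes both protection and sensitisation; some change values fall well beyond the stated -50 to +50 range.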 Further read-outs or replicates are left out here. The record does not give: the amount of reagent.

| gene knocked down | two-siRNA summed score (-2 to +2) | activity call |
| --- | --- | --- |
| LOC388526 | 0 | inactive |
| OBP2B | 0 | inactive |
| METTL15 | -1 | inactive |
| LOC389636 | 0 | inactive |
| USP3 | 0 | inactive |
| OR1M1 | 0 | inactive |
| SH2B1 | 0 | inactive |
| CMTR2 | 0 | inactive |
| ARMCX3 | 0 | inactive |
| LOC442002 | 0 | inactive |
| TOMM70 | 1 | inactive |
| ZNF544 | 0 | inactive |
| LAD1 | 1 | inactive |
| NKAIN1 | 0 | inactive |
| NDEL1 | 0 | inactive |
| LOC440111 | 0 | inactive |
| PPIE | 0 | inactive |
| LOC388163 | 0 | inactive |
| LOC440190 | 0 | inactive |
| LOC401018 | 0 | inactive |
| DRAP1 | 1 | inactive |
| LOC440833 | 0 | inactive |
| LOC388903 | 1 | inactive |
| LOC441014 | 0 | inactive |
| LOC116166 | 0 | inactive |
| HTR3B | -1 | inactive |
| CEP170 | 0 | inactive |
| UGT2B7 | 0 | inactive |
| PMP2 | -1 | inactive |
| FEM1A | -1 | inactive |
| OR7C1 | 0 | inactive |
| SYBU | 0 | inactive |
| MGC27382 | 0 | inactive |
| BTBD1 | 0 | inactive |
| C20orf144 | 0 | inactive |
| TAS2R5 | 0 | inactive |
| LOC440574 | 0 | inactive |
| SLC17A7 | 0 | inactive |
| DHRS7B | 0 | inactive |
| VIM | 1 | inactive |
| HCRTR2 | 0 | inactive |
| TENT5A | 0 | inactive |
| LINC02915 | -1 | inactive |
| TTC14 | 0 | inactive |
| IL11RA | 0 | inactive |
| NEFL | 0 | inactive |
| FHOD3 | 0 | inactive |
| SPOPL | 0 | inactive |
| RTL8C | 0 | inactive |
| LACTB | 0 | inactive |
| SYT6 | 1 | inactive |
| PJA2 | -1 | inactive |
| SAV1 | 0 | inactive |
| SERP2 | 0 | inactive |
| OR5L1 | 0 | inactive |
| SCML4 | 0 | inactive |
| LOC401202 | 0 | inactive |

3 of these entries in another layout.
NEFL
- two-siRNA summed score (-2 to +2): 0
- activity call: inactive

FHOD3
- two-siRNA summed score (-2 to +2): 0
- activity call: inactive

SPOPL
- two-siRNA summed score (-2 to +2): 0
- activity call: inactive
